Article PMC7954794, “Protein context shapes the specificity of SH3 domain-mediated interactions in vivo” (Nature Communications, 2021)
These are yes or no findings as the source states them, for the method shown. Binding seen in cells or lysates may run through a third protein. Binding can be weak; no strength is given. Tags and fused reporters may be left off the sequences shown.

The binders below were run against Abp1 SH3-deleted (SH3 replaced by the linker GGSSGGGG) fused to DHFR F[1,2]-FLAG (S. cerevisiae) (assay: split reporter; DHFR protein-fragment complementation assay (DHFR-PCA) in diploid S. cerevisiae on solid medium with methotrexate; baits fused to DHFR F[1,2], preys to DHFR F[3]; colony size after the second PCA selection, four bait-prey tests; PCA score above a threshold is called a PPI).

| binding | Binder |
| --- | --- |
| no binding | Hua2 fused to DHFR F[3] (protein, UniProt Q12134 1-243) MQQTKFGKMYLDHDSVVEYSEDEIVEADRITLGYKKRLSMIENQMRHLLEDFSLDVQQIEPILADLQKYYDAFLQLLQKRNKSLQCKRSTHQPVPSPMNSQTSTNAKVNLSGKLMKFQLNSVQKFDEENILRILQNKIEFEHYFQIDKGKKQKVLLLAVYQCLNGPTRLHKVLNIEGIIHNNSIRTILGKQVSSSKWTVFLYDVKLVLLAHRQDVPNLETSKMIVRYGDLFPCALYFKDHTAY |
| binds | Lsb3 fused to DHFR F[3] (protein, UniProt P43603 1-459) MGINNPIPRSLKSETKKAAKILASFVKPNQVFGADQVIPPDVLKRAKGLAIITILKAGFLFSGRAGSGVIVARLKDGTWSAPSAIAMAGAGAGGMVGIELTDFVFILNTQDAVKSFSEFGTITLGGNVSVSAGPLGRSAEAAASASAGGVAAVFAYSKSKGLFAGVSVEGSAIIERREANRKFYGDNCTAKMILSGRIRPPPAVDPLFRVLESRAFNYRPSNGGRGSFDDDEDDYYDDDDYYNDIPSSFSSTDASSTRPNTRSTRRRAQSGSRYTFDDDDDDDDYGTGYSRNSRLAPTNSGGSGGKLDDPSGASSYYASHRRSGTAQSRARSSRNRWADDEYDDYDDDYESGYRRGNGRDRTKDREVDDLSNRFSKSRISSASTPQTSQGRFTAPTSPSTSSPKAVALYSFAGEESGDLPFRKGDVITILKKSDSQNDWWTGRVNGREGIFPANYVELV |
| no binding | App1 fused to DHFR F[3] (protein, UniProt P53933 1-587) MNSQGYDESSSSTAATSGPTSGDPRMGKKQRFMNLIRTTKDVYIPNLTSSISQKTMDGIRSTTNSFEGYNDLPMELPHNTTITYFPTYTTTNLVDPDGLSAPRKDFETTVRCAVSYPGNPTSRRNRWLLSLCKQYLRTGTAEADVAPVVPPHLEEDSGDLNDSQSSIESSLSSKSENRYSHMGIQEEDVLNERIQGFLSKKVPNTPVVVDLLPKDKLRGDTASFFGTTDSYGNLLIKAETDFLPSKINITLDTPIEGHADPISETFPANYVSPYGIGLISDIDDTIKHTGVTGDRRSMFRNVFIHDVQSWVIDGVPLWYKTLHDVADVDFFYVSNSPIQTFTLLKQYICANFPPGPIFLKQYSGNFFSTIMTSSANRKIQPIANILKDFPKKKFILVGDSGEHDLEAYTTTALQFPNQILAIYIRCCSNSMSDVPSHDEEVMNEVNNIIELQQRPMQMTKSTVRTRRRPPPPPIPSTQKPSLTEEQTESIRMSRRNKDENNAKRVAPPPLPNRQLPNLDANTYYVPSSQNDYGMYGAFMDKKADEWKRRVMDSIQKLSNQDTTLMFFSDPALSLEDSIRRIREKYSN |
